The text below walks through data of patent publication US4894437 (dated 1990).

The nature of the data set: general procedure: solution-phase peptide synthesis; DCC; DEPC/Et3N.

Regarding “3-(Phenylthio)propionyl-His-Leu [CH(OH)CH2 ]Val-Ile-AMP”, the “final HPLC purity” value (late stage modification step, 225 nm) worked out at 100% purity.

Take “Boc-His(Tos)-Leu [CH(OTBDMS)CH2 ]Val-ILe-AMP”: the step yield (coupling step) was 87%.

His(Tos)-Leu [CH(OH)CH2 ]Val-IIe-AMP had a step yield (late stage modification step) of 84%.
